Here are results for one molecule from US10568897B2, “Bidens pilosa and polyacetylenic compounds for prevention and treatment of coccidiosis” (ACADEMIA SINICA, priority 2011, dated 2020).

This data set has as its system E. tenella. Put plainly: Eimeria infection (coccidiosis) in chickens: survival, body weight, clinical symptoms, gut lesions, excreted oocysts. The data set is classed as in vivo. As for the experimental part: FIGS. 3 A-F show the effect of BPP on the survival rate (FIG. 3A), sick bird appearance (FIG. 3B) and clinical symptoms (FIG. 3C) in the chickens. One-day-old chickens were fed with control diet for 14 days. On day 14, the birds were infected with vehicle (CTR) or E. tenella (ET) and fed with control diet (CTR and ET groups) and the diet containing 6 mg/kg maduramicin (ET+Mad), or 5%, or 1%, or 0.5% of BPP (ET+BPP) for additional 7 days. After the birds were sacrificed, the cecum was dissected and fixed for hematoxylin and eosin Y staining. The representative images of cecal hemorrhagic lesions (FIG. 3D) and histopathology (FIG. 3E) are shown.
One-d-old Lohmann broiler chicks hatched at Taichung Hatchery (Taiwan) were wing-banded upon arrival, weighed, and randomly placed in Petersime starter brooder units. At 1 and 2 d post-hatch, the birds were given free access to water and diets. […] Growth performance (body weight and feed conversion), pathology (bloody droppings and gut morphometry) and survival rate were measured and examined. […]
Since B. pilosa was claimed to treat protozoan and bacterial infections, we tested whether B. pilosa could protect the chickens from coccidiosis. […] Body weight was measured. […]
The excretion of oocysts is an important indicator of the efficacy of anti-coccidial drug. Thus, we assessed the number of excreted oocysts from the chickens with Eimeria infection. […]

On to `CO[C@@H]1[C@@H](OC)[C@H](C)[C@@](O)(CC(=O)O)O[C@H]1[C@H](C)[C@H]1O[C@@]2(CC[C@@](C)([C@H]3CC[C@@](C)([C@@H]4O[C@@H]([C@H]5O[C@](C)(O)[C@H](C)C[C@@H]5C)C[C@@H]4O[C@@H]4C[C@H](OC)[C@@H](OC)[C@H](C)O4)O3)O2)C[C@H](O)[C@H]1C` [maduramicin, Maduramicin], for which the “Body weight Day 7” value (before infection and treatment (control diet until day 14)) is 65.5 ± 5.7 g. For the setting “day of E. tenella infection, start of treatment diet”, the “Body weight Day 14” value was 111.8 ± 2.9 g.
